# The supplement of paper PMC8728848
# This is one part of the list.
# B1: SP15308F-bth-333-19-333 (Bacteroides thetaiotaomicron) (protein)
# chain: SCNNEWESEQYVQMVSFKAPVNAQGVTPIYIRYKPEGKVTYQLPLIVSGSTMNSKDLNVHVGLDLDTLDVLNVEHFGSRKELFFKPLENKYYEFPETVQIPAGECTSLLPIDFALKDLDQVDKWVLPLAIQSNDPSHNYQANPRKFYRRAMLRISPFNDYSGQYSATAYKVYFKGNEKEAIVPEYHTSYVIDDKTIFFYAGLIDIDRLDRKYYKIKFEFTEEKIDLQTRKLKISSDNEDINLVVKGQPSYTVEEEMDATRPYLKHIYVTINNLEYEFTDYTSVPGYPLEYVVKGSLTMERKINTQIPDEDQAIEW
# Columns and labels:
# Experiment in all cases: glycan array binding signal (z-score within array); higher = stronger binding
# Settings in all cases: glycan notation: IUPAC condensed, linker removed
# Fuc(a1-2)Gal = target: Fuc(a1-2)Gal
# How it was run: (§1)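 The binding signal is a Z-score computed within each array. Data were drawn from 3228 arrays in the Consortium for Functional Glycomics database, restricted to those with a known protein sequence. Scores were averaged over arrays of the same protein sequence at different concentrations or buffers, and over linkers, and negative values can be taken as non-binding.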
# Fuc(a1-2)Gal(b1-3)GalNAc = target: Fuc(a1-2)Gal(b1-3)GalNAc
# How it was run: as §1
# [1] = target: Fuc(a1-2)Gal(b1-3)GalNAc(a1-3)[Fuc(a1-2)]Gal(b1-4)Glc
# How it was run: as §1
# [2] = target: Fuc(a1-2)Gal(b1-3)GalNAc(a1-3)[Fuc(a1-2)]Gal(b1-4)GlcNAc
# How it was run: as §1
# [3] = target: Fuc(a1-2)Gal(b1-3)GalNAc(b1-3)Gal
# How it was run: as §1
# [4] = target: Fuc(a1-2)Gal(b1-3)GalNAc(b1-3)Gal(a1-4)Gal(b1-4)Glc
# How it was run: as §1
# [5] = target: Fuc(a1-2)Gal(b1-3)GalNAc(b1-4)[Neu5Ac(a2-3)]Gal(b1-4)Glc
# How it was run: as §1
# Fuc(a1-2)Gal(b1-3)GlcNAc = target: Fuc(a1-2)Gal(b1-3)GlcNAc
# How it was run: as §1
# [6] = target: Fuc(a1-2)Gal(b1-3)GlcNAc(b1-2)Man(a1-3)[Fuc(a1-2)Gal(b1-3)GlcNAc(b1-2)Man(a1-6)]Man(b1-4)GlcNAc(b1-4)GlcNAc
# How it was run: as §1
# [7] = target: Fuc(a1-2)Gal(b1-3)GlcNAc(b1-2)Man(a1-3)[Fuc(a1-2)Gal(b1-3)GlcNAc(b1-2)Man(a1-6)]Man(b1-4)GlcNAc(b1-4)[Fuc(a1-6)]GlcNAc
# How it was run: as §1
# [8] = target: Fuc(a1-2)Gal(b1-3)GlcNAc(b1-3)Gal(b1-4)Glc
# How it was run: as §1
# [9] = target: Fuc(a1-2)Gal(b1-3)GlcNAc(b1-3)GalNAc
# How it was run: as §1
# [10] = target: Fuc(a1-2)Gal(b1-3)GlcNAc(b1-3)[Fuc(a1-2)Gal(b1-3)GlcNAc(b1-6)]GalNAc
# How it was run: as §1
# [11] = target: Fuc(a1-2)Gal(b1-3)GlcNAc(b1-3)[Gal(b1-4)GlcNAc(b1-6)]Gal(b1-4)Glc
# How it was run: as §1
# [12] = target: Fuc(a1-2)Gal(b1-3)GlcNAc(b1-3)[Neu5Ac(a2-6)Gal(b1-4)GlcNAc(b1-6)]Gal(b1-4)Glc
# How it was run: as §1
# [13] = target: Fuc(a1-2)Gal(b1-3)GlcNAc6S
# How it was run: as §1
# [14] = target: Fuc(a1-2)Gal(b1-3)[Fuc(a1-4)]GlcNAc
# How it was run: as §1
# [15] = target: Fuc(a1-2)Gal(b1-3)[Fuc(a1-4)]GlcNAc(b1-2)Man(a1-3)[Fuc(a1-2)Gal(b1-3)[Fuc(a1-4)]GlcNAc(b1-2)Man(a1-3)]Man(b1-4)GlcNAc(b1-4)GlcNAc
# How it was run: as §1
# [16] = target: Fuc(a1-2)Gal(b1-3)[Fuc(a1-4)]GlcNAc(b1-2)Man(a1-3)[Fuc(a1-2)Gal(b1-3)[Fuc(a1-4)]GlcNAc(b1-2)Man(a1-6)]Man(b1-4)GlcNAc(b1-4)[Fuc(a1-6)]GlcNAc(b1-4)[Fuc(a1-6)]GlcNAc
# How it was run: as §1
# [17] = target: Fuc(a1-2)Gal(b1-3)[Fuc(a1-4)]GlcNAc(b1-3)[Fuc(a1-3)[Gal(b1-4)]GlcNAc(b1-6)]Gal(b1-4)Glc
# How it was run: as §1
# [18] = target: Fuc(a1-2)Gal(b1-3)[Fuc(a1-4)]GlcNAc(b1-3)[Gal(b1-4)GlcNAc(b1-6)]Gal(b1-4)Glc
# How it was run: as §1
# Fuc(a1-2)Gal(b1-4)Glc = target: Fuc(a1-2)Gal(b1-4)Glc
# How it was run: as §1
# Fuc(a1-2)Gal(b1-4)Glc6S = target: Fuc(a1-2)Gal(b1-4)Glc6S
# How it was run: as §1
# Fuc(a1-2)Gal(b1-4)GlcNAc = target: Fuc(a1-2)Gal(b1-4)GlcNAc
# How it was run: as §1
# [19] = target: Fuc(a1-2)Gal(b1-4)GlcNAc(b1-2)Man
# How it was run: as §1
# [20] = target: Fuc(a1-2)Gal(b1-4)GlcNAc(b1-2)Man(a1-3)[Fuc(a1-2)Gal(b1-4)GlcNAc(b1-2)Man(a1-6)]Man(b1-4)GlcNAc(b1-4)GlcNAc
# How it was run: as §1
# [21] = target: Fuc(a1-2)Gal(b1-4)GlcNAc(b1-2)Man(a1-3)[Fuc(a1-2)Gal(b1-4)GlcNAc(b1-2)Man(a1-6)]Man(b1-4)GlcNAc(b1-4)[Fuc(a1-6)]GlcNAc
# How it was run: as §1
# [22] = target: Fuc(a1-2)Gal(b1-4)GlcNAc(b1-2)[Fuc(a1-2)Gal(b1-4)GlcNAc(b1-4)]Man(a1-3)[Fuc(a1-2)Gal(b1-4)GlcNAc(b1-2)Man(a1-6)]Man(b1-4)GlcNAc(b1-4)GlcNAc
# How it was run: as §1
# [23] = target: Fuc(a1-2)Gal(b1-4)GlcNAc(b1-3)Gal(b1-4)GlcNAc
# How it was run: as §1
# [24] = target: Fuc(a1-2)Gal(b1-4)GlcNAc(b1-3)Gal(b1-4)GlcNAc(b1-2)Man(a1-3)[Fuc(a1-2)Gal(b1-4)GlcNAc(b1-3)Gal(b1-4)GlcNAc(b1-2)Man(a1-6)]Man(b1-4)GlcNAc(b1-4)GlcNAc
# How it was run: as §1
# [25] = target: Fuc(a1-2)Gal(b1-4)GlcNAc(b1-3)Gal(b1-4)GlcNAc(b1-3)Gal(b1-4)GlcNAc
# How it was run: as §1
# [26] = target: Fuc(a1-2)Gal(b1-4)GlcNAc(b1-3)GalNAc
# How it was run: as §1
# [27] = target: Fuc(a1-2)Gal(b1-4)GlcNAc(b1-3)[Fuc(a1-2)Gal(b1-4)GlcNAc(b1-6)]GalNAc
# How it was run: as §1
# [28] = target: Fuc(a1-2)Gal(b1-4)GlcNAc(b1-3)[Fuc(a1-3)[Gal(b1-4)]GlcNAc(b1-6)]Gal(b1-4)Glc
# How it was run: as §1
# [29] = target: Fuc(a1-2)Gal(b1-4)GlcNAc(b1-6)GalNAc
# How it was run: as §1
# [30] = target: Fuc(a1-2)Gal(b1-4)GlcNAc6S
# How it was run: as §1
# [31] = target: Fuc(a1-2)Gal(b1-4)[Fuc(a1-3)]GlcNAc
# How it was run: as §1
binder,measurement,setting,value
B1,glycan array binding signal (z-score),Fuc(a1-2)Gal,-0.518
same,glycan array binding signal (z-score),Fuc(a1-2)Gal(b1-3)GalNAc,-0.116
same,glycan array binding signal (z-score),[1],-0.093
same,glycan array binding signal (z-score),[2],-1.37
same,glycan array binding signal (z-score),[3],-0.613
same,glycan array binding signal (z-score),[4],-1.74
same,glycan array binding signal (z-score),[5],0.435
same,glycan array binding signal (z-score),Fuc(a1-2)Gal(b1-3)GlcNAc,0.204
same,glycan array binding signal (z-score),[6],0.737
same,glycan array binding signal (z-score),[7],-0.077
same,glycan array binding signal (z-score),[8],-0.538
same,glycan array binding signal (z-score),[9],-1.71
same,glycan array binding signal (z-score),[10],0.606
same,glycan array binding signal (z-score),[11],-0.314
same,glycan array binding signal (z-score),[12],-0.841
same,glycan array binding signal (z-score),[13],-0.912
same,glycan array binding signal (z-score),[14],-0.643
same,glycan array binding signal (z-score),[15],0.921
same,glycan array binding signal (z-score),[16],1.98
same,glycan array binding signal (z-score),[17],-0.356
same,glycan array binding signal (z-score),[18],-0.933
same,glycan array binding signal (z-score),Fuc(a1-2)Gal(b1-4)Glc,-1.21
same,glycan array binding signal (z-score),Fuc(a1-2)Gal(b1-4)Glc6S,0.887
same,glycan array binding signal (z-score),Fuc(a1-2)Gal(b1-4)GlcNAc,-1.51
same,glycan array binding signal (z-score),[19],-0.339
same,glycan array binding signal (z-score),[20],-0.837
same,glycan array binding signal (z-score),[21],0.226
same,glycan array binding signal (z-score),[22],-0.932
same,glycan array binding signal (z-score),[23],0.138
same,glycan array binding signal (z-score),[24],3.55
same,glycan array binding signal (z-score),[25],-0.564
same,glycan array binding signal (z-score),[26],0.057
same,glycan array binding signal (z-score),[27],-0.209
same,glycan array binding signal (z-score),[28],1.11
same,glycan array binding signal (z-score),[29],0.404
same,glycan array binding signal (z-score),[30],-0.295
same,glycan array binding signal (z-score),[31],0.294

# An excerpt of these results, with bars between the fields.
binder | measurement | setting | value
B1 | glycan array binding signal (z-score) | Fuc(a1-2)Gal(b1-3)GlcNAc | 0.204
same | glycan array binding signal (z-score) | [9] | -1.71
